The inconclusive results got no clear call from the source; some entries with a clear call stand among them for comparison. Potencies of inconclusive entries are doubtful fits and often do not repeat. Calls of active or inactive are those of the source. Calls follow the shape of the dose curve; as a rule, active = well fitted cell-killing curve with a large enough effect; inconclusive = small, poorly fitted or top-dose-only effect, or effect the other way, or another doubt; inactive = no such curve, though single readings can be large or run the other way.
Experiment: Identifying Small Molecule Inhibitors of Pancreatic Cancer Stem Cells (A2780, Spheroid) (AID 1259357);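 also: spheroids pre-formed over 14 days in stem cell medium on hydrogel; compound exposure lasted 48 h before the ATP luminescence read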;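 as to viability (percent of control): 100% = DMSO treated cells and 0% = wells without cells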
Settings: Potency: A2780 spheroid viability; viability (percent of control): at 46.1 µM (top of the series)
Excerpt: Progenitor-like cancer cells, often referred to as cancer stem cells (CSC), are believed to be the drivers of therapeutic resistance and rapid recurrence. CSCs are postulated to reside in specific niches characterized by low oxygen tension, limited nutrient supply, and high redox load. Selectively targeting CSC, alone or in combination with cytotoxic agents, as a means to produce durable remissions is an appealing concept. Modeling these cells in in vitro setting is an important step in finding new therapies and/or targets. Multiple reports highlight that forcing cells in culture into 3-dimensionaly architectures (spheroids) re-establishes key progenitor-like transcriptional signatures. Pancreatic cancer is among the diseases with the most dismal outlook which is driven, largely, by recurance following front-line therapies. […] In hopes of deriving new insight into the targeting of these pancreatic CSCs we examined three established pancreatic cancer cell lines in cytotoxicity assays versus a collection of approved and investigational drugs. Importantly, we screened these lines as traditional monolayer (2D) and spheroid (3D) formats to gain an appreciation of agents with differential activity.
Multicellular tumor spheroids from Panc1, MiaPaCa-2, and the primary low-passage tissue culture line SB.06 were seeded in stem cell media (SCM) in nonadherent 6-well plates coated with hydrogel (Corning Life Sciences, Chelmsford, Mass) and pancreatic spheres generated for 14 days before screening. Cells were seeded into 1536-well solid-bottom white tissue culture treated Greiner Bio One Plates (789173-F) using a MultiDrop Combi (Thermofisher Scientific) dispenser and a small sterile cassette. One column was media alone to be used as a :"no cells" control. The plates were then covered with sterilized stainless steel gasketed lids from Kalypsys. After allowing cells to attach for 4 hours, 23 nL of test compound or control (negative control DMSO and positive control 9.2 uM Bortezomib-final) were added from a 1536-well polypropylene compound source plate to each well using a 1536 head pin tool from Kalypsys. Cells were then incubated for 48 hours at 37C, 95% relative humidity and 5% CO2. After 48 hours, plates were removed from the incubator and 3 uL of CellTiter-Glo (Promega) was added using an Aurora Flying Reagent Dispenser Bioraptor. Plates were incubated at room temperature for 10 minutes prior to reading the luminescence on the Viewlux (PerkinElmer). The relative luciferase units are used to calculate the percent activity using the activity of DMSO in the cells and no cells columns for normalization of no inhibition and full inhibition respectively.
Potency is read from the fitted curve at half-maximal effect.

Q: For `COc1ccc(C(=O)c2c(C)n(CCN3CCOCC3)c3ccccc23)cc1`, which “viability (percent of control)” value is on record?
A: inactive: 82.7%

Q: Which Potency does the source give for `COC[C@H]1OC(=O)c2coc3c2[C@@]1(C)C1=C(C3=O)C2CCC(=O)[C@@]2(C)C[C@H]1OC(C)=O` (stereo partly drawn) here?
A: inconclusive: 1660 nM [cytotoxic, full curve, poor fit]

Q: With `O=P1(N(CCCl)CCCl)NCCCO1` (stereo not drawn) as the compound, how does the viability (percent of control) read?
A: inconclusive: 112%

Q: Which Potency does the source give for `CC(C)[C@]12O[C@H]1[C@@H]1O[C@]13[C@]1(O[C@H]1C[C@H]1C4=C(CC[C@@]13C)C(=O)OC4)[C@@H]2O` here?
A: inconclusive: 11800 nM [rising, full curve]

Q: For `C[C@@H]1[C@@H](CC(C[C@H]2O[C@@H]3O[C@]4(C)CC[C@@H]5[C@H](C)CC[C@@H]([C@H]2C)[C@@]35OO4)C[S+](=O)([O-])c2ccc(COC(=O)N(C)C)cc2)O[C@@H]2O[C@]3(C)CC[C@H]4[C@H](C)CC[C@@H]1[C@@]24OO3` (stereo partly drawn), which Potency is on record?
A: active: 59 nM

Q: For `Cc1c(C(=O)Nc2cccc(C(F)(F)F)c2)cc(-c2ccccc2)n1CCCN1CCOCC1`, which Potency is on record?
A: inconclusive: 13200 nM [rising, partial curve, poor fit]

Q: Which “viability (percent of control)” value does the source give for `Cn1c(CCCC(=O)O)nc2cc(N(CCCl)CCCl)ccc21` here?
A: inactive: 72.9%

Q: For `CC(=O)Nc1ccc(OC[C@](C)(O)C(=O)Nc2ccc([N+](=O)[O-])c(C(F)(F)F)c2)cc1`, which “viability (percent of control)” value is on record?
A: inactive: 97%

Q: Which Potency does the source give for `COc1ccc2c(c[n+](C)c3c4cc5c(cc4ccc23)OCO5)c1OC` here?
A: inconclusive: 33200 nM [cytotoxic, single point]

Q: For `Cc1sc2c(c1C)C(c1ccc(Cl)cc1)=N[C@@H](CC(=O)OC(C)(C)C)c1nnc(C)n1-2`, which Potency is on record?
A: inconclusive: 132 nM [cytotoxic, full curve, poor fit]

Q: For `C=CCON=C(C[C@H]1O[C@@H]2O[C@]3(C)CC[C@@H]4[C@H](C)CC[C@@H]([C@H]1C)[C@@]24OO3)[C@H]1O[C@@H]2O[C@]3(C)CC[C@H]4[C@H](C)CC[C@@H]([C@@H]1C)[C@@]24OO3`, which Potency is on record?
A: inconclusive: 29.6 nM [cytotoxic, full curve]

Q: With `CC1=C2C[C@@H]3[C@@H](CC=C4C[C@@H](O)CC[C@@]43C)[C@@H]2CC[C@]12O[C@H]1C[C@H](C)CN[C@H]1[C@H]2C` as the compound, how does the Potency read?
A: inconclusive: 4180 nM [rising, partial curve, poor fit]

Q: Which Potency does the source give for `C[C@@H]1[C@@H](C(=O)C[C@H]2O[C@@H]3O[C@]4(C)CC[C@@H]5[C@H](C)CC[C@@H]([C@H]2C)[C@@]35OO4)O[C@@H]2O[C@]3(C)CC[C@H]4[C@H](C)CC[C@@H]1[C@@]24OO3` here?
A: inconclusive: 37.2 nM [cytotoxic, full curve]

Q: With `COC1(CS(=O)c2ccccc2)CCN(CCc2c[nH]c3ccc(F)cc23)CC1` (stereo not drawn) as the compound, how does the Potency read?
A: inconclusive: 1320 nM [cytotoxic, partial curve, poor fit]

Q: For `C[C@]12CCC(=O)C(O)=C1CC[C@@H]1[C@@H]2CC[C@]2(C)C(=O)CC[C@@H]12`, which “viability (percent of control)” value is on record?
A: inactive: 117%

Q: With `CCCCC/C=C\C/C=C\C/C=C\C/C=C\CCCC(=O)NC1CC1` as the compound, how does the viability (percent of control) read?
A: inconclusive: 99.9%

Q: Which “viability (percent of control)” value does the source give for `CN(C)CCN(C)CCc1ccc(Cl)c(Cl)c1` here?
A: inactive: 114%

Q: For `Cc1ccccc1-n1c(Cn2cnc3c(N)ncnc32)nc2cccc(C)c2c1=O`, which Potency is on record?
A: inconclusive: 37200 nM [cytotoxic, single point]

Q: Which viability (percent of control) does the source give for `Cc1cc(SCc2sc(-c3ccc(C(F)(F)F)c(F)c3)nc2C)ccc1OCC(=O)O` here?
A: inconclusive: 125%

Q: With `O=C(O)C(=O)c1cn(Cc2ccccc2)c2ccc(-c3ccc(OC(F)(F)F)cc3)cc12` as the compound, how does the Potency read?
A: inconclusive: 1050 nM [cytotoxic, full curve, poor fit]

Q: For `CNC(=O)N1N=C(c2ccc(N)cc2)c2cc3c(cc2CC1C)OCO3` (stereo not drawn), which “viability (percent of control)” value is on record?
A: inactive: 59.7%

Q: For `Cc1nc(-c2ccc(-c3ccc(C(=O)N4CCc5cc6c(cc54)C4(CCN(C)CC4)CO6)cc3)c(C)c2)no1`, which Potency is on record?
A: inconclusive: 2.6 nM [rising, full curve, poor fit]

Q: For `O=C(O)c1nn(Cc2ccc(Cl)cc2Cl)c2ccccc12`, which “viability (percent of control)” value is on record?
A: inactive: 64.8%

Q: With `CC1CC(C)C(=O)C(C(O)CC2CC(=O)NC(=O)C2)C1` (stereo not drawn) as the compound, how does the Potency read?
A: active: 3820 nM

Q: Which Potency does the source give for `CC(O)(CS(=O)(=O)c1ccc(F)cc1)C(=O)Nc1ccc(C#N)c(C(F)(F)F)c1` (stereo not drawn) here?
A: inconclusive: 1 nM

Q: With `CNC(=O)c1ccc(N2C(=S)N(c3ccc(C#N)c(C(F)(F)F)c3)C(=O)C23CCC3)cc1F` as the compound, how does the Potency read?
A: inconclusive: 935 nM [cytotoxic, full curve, poor fit]

Q: Which “viability (percent of control)” value does the source give for `O=C(Oc1ccc([N+](=O)[O-])cc1)N1CCC(C(O)(c2ccc3c(c2)OCO3)c2ccc3c(c2)OCO3)CC1` here?
A: inactive: 101%

Q: With `Cn1cc(C2=C(c3cn(C4CCN(Cc5ccccn5)CC4)c4ccccc34)C(=O)NC2=O)c2ccccc21` as the compound, how does the Potency read?
A: inconclusive: 3.7 nM [rising, full curve, poor fit]
